In patent publication US7754743B2, “Heteroarylcarbamoylbenzene derivatives” (Banyu Pharmaceutical Co., Ltd., priority 2003, dated 2010):

Biological target: T1, recombinant human liver GK (Homo sapiens, UniProt P35557)
T1 construct: made in house; host or cells: E. coli
T1 sequence (P35557 1-466 isoform P35557-2): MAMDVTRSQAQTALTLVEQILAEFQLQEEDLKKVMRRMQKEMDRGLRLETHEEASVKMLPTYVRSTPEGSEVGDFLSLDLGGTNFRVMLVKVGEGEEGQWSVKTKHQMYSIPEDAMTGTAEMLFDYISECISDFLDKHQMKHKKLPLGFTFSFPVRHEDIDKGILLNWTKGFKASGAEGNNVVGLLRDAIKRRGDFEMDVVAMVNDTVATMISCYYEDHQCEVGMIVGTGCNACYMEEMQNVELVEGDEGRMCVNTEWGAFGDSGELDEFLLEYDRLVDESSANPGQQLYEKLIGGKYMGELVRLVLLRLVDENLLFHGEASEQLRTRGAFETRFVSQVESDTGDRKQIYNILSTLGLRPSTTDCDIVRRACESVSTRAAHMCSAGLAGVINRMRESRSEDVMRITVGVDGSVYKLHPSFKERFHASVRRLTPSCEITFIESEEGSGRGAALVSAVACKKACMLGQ
Test: Glucokinase (GK) activation assay, G6PDH-coupled thio-NADH absorbance at 405 nm
Format: biochemical
Design: dose or concentration left out as unconfirmed
Protocol: The glucokinase activity is the degree of activation of glucokinase, as determined not by direct measurement of glucose-6-phosphate, but by measurement of the amount of thio-NADH produced upon production of phosphogluconolactone from glucose-6-phosphate by the reporter enzyme glucose-6-phosphate dehydrogenase.
The recombinant human liver GK used in this assay was expressed in E. coli as FLAG fusion protein, and it was purified by […] M2 AFFINITY GEL (Sigma).
The assay was carried out using a flat-bottomed 96-well plate at 30° C. A 69 μl portion of assay buffer (25 mM Hepes Buffer: pH=7.2, 2 mM MgCl2, 1 mM ATP, 0.5 mM TNAD, 1 mM dithiothreitol) was dispensed, and either a DMSO solution of the compound or 1 μl of DMSO as a control was added. Next, 20 μl of an enzyme mixture (FLAG-GK, 20 U/ml G6PDH) precooled in ice bath was dispensed, and then 10 μl of 25 mM glucose was added as substrate and reaction was initiated (final glucose concentration=2.5 mM).
FLAG-GK was added to produce an absorbance increment of from 0.05 to 0.1 after 5 minutes in the presence of 1% DMSO.
The OD values were measured at each concentration of the evaluated compound, using the OD value of the DMSO control as 100%. The Emax (%) and EC50 (μM) values were calculated from the OD value at each concentration, and used as indices of the GK activating power of the compounds.

Emax: 844%
Structure (SMILES): CC(CO)Oc1cc(Oc2ccc(S(C)(=O)=O)cc2)cc(C(=O)Nc2nccs2)c1 (stereo not shown) [Production Example 2, 5-(2-hydroxy-1-methyl-ethoxy)-3-(4-methanesulfonylphenoxy)-N-thiazol-2-yl-benzamide]
